{"source": "PubChem BioAssay AID743454 (Peter MacCallum Cancer Centre, 2014)", "screen": "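Knock-downs lowering viability or raising caspase 3/7 activity in vorinostat-treated resistant cells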 (primary screen)", "system": "human HCT116-VR colon cancer cells, selected for vorinostat resistance", "knock-down reagent": "siRNA pool against human genes, 40 nM siRNA pool", "time to read-out": "vorinostat for 24 h, read-out about 72 h after transfection", "challenge": "vorinostat at 2.5 µM final", "detection": "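Cell viability by CellTiter-Fluor and caspase 3/7 activity by luminescence, each scaled to mock wells per plate, duplicates averaged, then robust z-scored over all plates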", "reading the numbers": "viability robust z-score: higher = more viable cells than screen typical; caspase robust z-score: higher = more caspase 3/7 activity than screen typical", "hit rule": "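a knock-down is a hit when classed RV1 or RV2 for lowered viability, or CA1 or CA2 for caspase activation; those lethal without drug were dropped; hits were retested singly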", "note": "Here is an unselected part of about 18,000 deposited reagents. 450 of all reagents (2.5%) count as active. 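Single biological run; no consistent viability z cut-off exists, so the class columns, not z-scores, define the calls.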"}
The opening 2 records, ahead of the listing:
{"target": "FUT1", "viability hit class": "no change", "caspase hit class": "no change", "viability robust z-score": -0.09, "caspase robust z-score": -0.23, "outcome": "inactive"}
{"target": "DCXR", "viability hit class": "no change", "caspase hit class": "no change", "viability robust z-score": -0.64, "caspase robust z-score": 1.07, "outcome": "inactive"}

Main list, from the start:
{"target": "FUT1", "viability hit class": "no change", "caspase hit class": "no change", "viability robust z-score": -0.09, "caspase robust z-score": -0.23, "outcome": "inactive"}
{"target": "DCXR", "viability hit class": "no change", "caspase hit class": "no change", "viability robust z-score": -0.64, "caspase robust z-score": 1.07, "outcome": "inactive"}
{"target": "LEMD1", "viability hit class": "no change", "caspase hit class": "no change", "viability robust z-score": -0.06, "caspase robust z-score": 0.89, "outcome": "inactive"}
{"target": "L3MBTL2", "viability hit class": "no change", "caspase hit class": "no change", "viability robust z-score": 0.25, "caspase robust z-score": 0.06, "outcome": "inactive"}
{"target": "LDOC1", "viability hit class": "no change", "caspase hit class": "no change", "viability robust z-score": 0.04, "caspase robust z-score": 1.68, "outcome": "inactive"}
{"target": "TYW1", "viability hit class": "no change", "caspase hit class": "no change", "viability robust z-score": 0.44, "caspase robust z-score": 1.83, "outcome": "inactive"}
{"target": "CEMIP2", "viability hit class": "no change", "caspase hit class": "no change", "viability robust z-score": 0.69, "caspase robust z-score": -0.35, "outcome": "inactive"}
{"target": "RNF148", "viability hit class": "no change", "caspase hit class": "no change", "viability robust z-score": -0.19, "caspase robust z-score": 0.8, "outcome": "inactive"}
{"target": "CEBPG", "viability hit class": "no change", "caspase hit class": "no change", "viability robust z-score": 1.34, "caspase robust z-score": -0.38, "outcome": "inactive"}
{"target": "ERI2", "viability hit class": "no change", "caspase hit class": "no change", "viability robust z-score": 1.54, "caspase robust z-score": 0.38, "outcome": "inactive"}
{"target": "PPP4C", "viability hit class": "no change", "caspase hit class": "no change", "viability robust z-score": -0.31, "caspase robust z-score": 0.62, "outcome": "inactive"}
{"target": "CASZ1", "viability hit class": "no change", "caspase hit class": "no change", "viability robust z-score": 0.9, "caspase robust z-score": 1.69, "outcome": "inactive"}
{"target": "PACSIN1", "viability hit class": "no change", "caspase hit class": "no change", "viability robust z-score": 0.03, "caspase robust z-score": -0.48, "outcome": "inactive"}
{"target": "COL20A1", "viability hit class": "no change", "caspase hit class": "no change", "viability robust z-score": -3.16, "caspase robust z-score": 1.27, "outcome": "inactive"}
